What all share (experiment): co-IP
Assay [1] addresses full-length recombinant GST-fused and Myc-tagged U1-70K (rU1-70K) (UniProt P08621).
Assay [2] has as its target rU1-70K ΔLC2 (UniProt P08621).
The target in assay [3] is rU1-70K ΔLC1 (UniProt P08621).
Assay [4] addresses N-terminal domain (residues 1–99) of rU1-70K (UniProt P08621).
Assay [5] concerns the target full-length recombinant GST-fused and Myc-tagged RBM25 (rRBM25) (UniProt P49756).
Assay [6] concerns the target LC1 domain (residues 231–308) of rU1-70K (UniProt P08621).
For assay [7], the target named is T1, full-length recombinant GST-fused and Myc-tagged LUC7L3 (rLUC7L3) (UniProt O95232).
T1 sequence: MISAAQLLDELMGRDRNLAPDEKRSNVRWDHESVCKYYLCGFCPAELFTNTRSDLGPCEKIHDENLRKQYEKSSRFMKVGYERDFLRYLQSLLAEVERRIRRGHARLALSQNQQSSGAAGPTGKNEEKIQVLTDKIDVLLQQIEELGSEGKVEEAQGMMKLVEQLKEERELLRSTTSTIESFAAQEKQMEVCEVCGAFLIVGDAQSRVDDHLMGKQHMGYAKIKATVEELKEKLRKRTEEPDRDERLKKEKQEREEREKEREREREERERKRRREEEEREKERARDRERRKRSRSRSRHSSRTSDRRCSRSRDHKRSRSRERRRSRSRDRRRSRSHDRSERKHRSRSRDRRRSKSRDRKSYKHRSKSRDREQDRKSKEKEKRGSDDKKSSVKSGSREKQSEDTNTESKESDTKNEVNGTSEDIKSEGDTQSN

Amino acid sequences for entries named in this document (tags omitted). A change or cut given only in a name is not applied to a line headed by its entry. Chains listed by the source or under a name are the forms on record and can include a tag or linker. Residues count along the entry.
UniProt P08621: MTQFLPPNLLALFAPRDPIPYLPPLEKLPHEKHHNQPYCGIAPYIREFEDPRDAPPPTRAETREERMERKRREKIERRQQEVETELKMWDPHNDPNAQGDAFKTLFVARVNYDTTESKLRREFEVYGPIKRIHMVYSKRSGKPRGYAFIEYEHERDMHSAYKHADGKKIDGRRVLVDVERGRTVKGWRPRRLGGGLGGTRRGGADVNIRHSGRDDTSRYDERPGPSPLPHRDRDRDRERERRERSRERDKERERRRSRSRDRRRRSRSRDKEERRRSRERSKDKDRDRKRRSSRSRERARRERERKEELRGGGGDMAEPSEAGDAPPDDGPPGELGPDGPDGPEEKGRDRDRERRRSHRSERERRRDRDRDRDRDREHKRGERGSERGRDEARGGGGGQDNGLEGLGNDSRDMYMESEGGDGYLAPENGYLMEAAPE
rU1-70K N-terminus and RNA recognition motif (residues 1–181): residues 1-181 of P08621
N-terminal domain (residues 1–99) of rU1-70K: residues 1-99 of P08621
LC1 domain (residues 231–308) of rU1-70K: residues 231-308 of P08621
LC2 domain alone (317–407) of rU1-70K: residues 317-407 of P08621
rU1-70K ΔLC2 (P08621, form named): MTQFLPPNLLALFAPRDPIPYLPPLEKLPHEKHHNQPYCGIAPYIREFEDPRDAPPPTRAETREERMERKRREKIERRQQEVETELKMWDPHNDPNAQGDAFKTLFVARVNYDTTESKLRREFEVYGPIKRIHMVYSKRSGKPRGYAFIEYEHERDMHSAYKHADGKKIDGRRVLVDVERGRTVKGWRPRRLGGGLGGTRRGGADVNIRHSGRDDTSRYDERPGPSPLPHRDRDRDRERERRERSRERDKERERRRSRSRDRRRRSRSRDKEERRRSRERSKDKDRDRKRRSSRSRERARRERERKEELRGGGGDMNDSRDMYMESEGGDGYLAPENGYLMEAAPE
rU1-70K ΔLC1 (P08621, form named): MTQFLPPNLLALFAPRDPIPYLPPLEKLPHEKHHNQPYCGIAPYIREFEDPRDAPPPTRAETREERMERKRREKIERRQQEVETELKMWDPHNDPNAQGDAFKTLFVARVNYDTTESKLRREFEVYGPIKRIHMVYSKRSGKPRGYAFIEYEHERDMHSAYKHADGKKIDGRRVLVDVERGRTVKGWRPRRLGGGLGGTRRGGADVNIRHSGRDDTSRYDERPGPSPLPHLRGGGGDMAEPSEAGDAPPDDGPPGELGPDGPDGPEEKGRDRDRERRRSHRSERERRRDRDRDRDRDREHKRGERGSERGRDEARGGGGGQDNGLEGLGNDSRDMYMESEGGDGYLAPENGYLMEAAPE
UniProt P49756: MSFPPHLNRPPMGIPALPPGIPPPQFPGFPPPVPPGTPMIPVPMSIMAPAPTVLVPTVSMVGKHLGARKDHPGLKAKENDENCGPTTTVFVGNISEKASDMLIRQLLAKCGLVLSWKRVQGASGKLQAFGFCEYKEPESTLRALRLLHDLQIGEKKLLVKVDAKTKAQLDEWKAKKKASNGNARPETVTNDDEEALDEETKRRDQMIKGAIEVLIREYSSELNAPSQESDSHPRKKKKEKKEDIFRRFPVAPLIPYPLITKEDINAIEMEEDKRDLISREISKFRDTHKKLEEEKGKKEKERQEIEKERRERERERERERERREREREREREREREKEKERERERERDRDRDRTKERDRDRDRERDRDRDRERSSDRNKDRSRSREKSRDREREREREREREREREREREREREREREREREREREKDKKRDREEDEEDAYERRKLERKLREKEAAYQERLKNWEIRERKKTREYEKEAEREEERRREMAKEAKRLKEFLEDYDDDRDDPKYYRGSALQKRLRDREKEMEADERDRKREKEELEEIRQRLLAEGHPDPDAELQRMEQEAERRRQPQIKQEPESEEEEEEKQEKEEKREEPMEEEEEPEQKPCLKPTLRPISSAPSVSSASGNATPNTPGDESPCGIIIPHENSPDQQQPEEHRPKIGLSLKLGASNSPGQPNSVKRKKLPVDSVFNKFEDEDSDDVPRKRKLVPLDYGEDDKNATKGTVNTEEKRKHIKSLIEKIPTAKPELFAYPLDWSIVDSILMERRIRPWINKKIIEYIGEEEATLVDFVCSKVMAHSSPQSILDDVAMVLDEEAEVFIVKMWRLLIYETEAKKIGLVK
UniProt P09012: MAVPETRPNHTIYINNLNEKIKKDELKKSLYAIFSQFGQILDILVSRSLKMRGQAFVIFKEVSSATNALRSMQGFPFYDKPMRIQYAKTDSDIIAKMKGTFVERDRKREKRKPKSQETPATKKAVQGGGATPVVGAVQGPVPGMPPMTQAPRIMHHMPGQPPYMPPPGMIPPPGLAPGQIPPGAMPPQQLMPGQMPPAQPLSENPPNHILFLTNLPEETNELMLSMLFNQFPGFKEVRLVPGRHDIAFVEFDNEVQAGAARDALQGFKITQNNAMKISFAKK
UniProt Q07955: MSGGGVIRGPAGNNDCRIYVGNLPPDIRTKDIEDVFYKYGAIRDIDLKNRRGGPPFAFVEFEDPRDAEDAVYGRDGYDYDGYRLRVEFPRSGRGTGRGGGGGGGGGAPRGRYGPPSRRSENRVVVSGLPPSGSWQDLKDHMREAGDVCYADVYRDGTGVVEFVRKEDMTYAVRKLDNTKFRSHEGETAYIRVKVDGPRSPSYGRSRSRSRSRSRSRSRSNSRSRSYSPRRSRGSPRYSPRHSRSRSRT
UniProt Q13148: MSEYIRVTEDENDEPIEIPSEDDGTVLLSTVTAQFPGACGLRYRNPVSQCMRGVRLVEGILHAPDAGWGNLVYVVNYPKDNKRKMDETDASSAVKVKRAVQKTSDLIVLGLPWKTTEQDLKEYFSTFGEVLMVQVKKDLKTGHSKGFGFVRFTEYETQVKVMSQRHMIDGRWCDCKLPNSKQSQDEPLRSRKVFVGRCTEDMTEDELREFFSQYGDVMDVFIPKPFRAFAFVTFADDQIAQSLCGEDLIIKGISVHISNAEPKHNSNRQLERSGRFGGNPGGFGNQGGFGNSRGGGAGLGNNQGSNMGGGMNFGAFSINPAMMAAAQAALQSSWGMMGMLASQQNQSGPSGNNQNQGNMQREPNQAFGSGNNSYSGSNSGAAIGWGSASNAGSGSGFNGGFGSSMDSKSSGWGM

In assay [8] the target is rU1-70K N-terminus and RNA recognition motif (residues 1–181) (UniProt P08621).
In assay [9] the target is LC2 domain alone (317–407) of rU1-70K (UniProt P08621).
In assay [10] the target is full-length recombinant GST-fused and Myc-tagged RBM25 (rRBM25) (UniProt P49756). The source holds these as a separate data set.
For assay [11], the target named is full-length recombinant GST-fused and Myc-tagged U1-70K (rU1-70K) (UniProt P08621). The source holds these as a separate data set.
The target of assay [12] is T1, full-length recombinant GST-fused and Myc-tagged LUC7L3 (rLUC7L3). The source holds these as a separate data set.
Assay [13] concerns the target rU1-70K ΔLC2 (UniProt P08621). This is another data set of the same source.

Like-named read-outs stand apart in the source and are kept apart here. No constants are given. Whether binding was seen depends on the method and setting. In cells and extracts the contact can be indirect. Some entries that bind do so weakly or less than the wild type. For some of these results: Sequences can lack the tags named with a protein.

In the case of U1A (from UniProt P09012 1-282), the binding result in assay [1] and in [2] was “binds” each time.
In the case of SRSF1 (from UniProt Q07955 1-248), the binding result in assay [1] and in assay [2] was “binds” throughout.
For TDP-43 (from UniProt Q13148 1-414), the binding entry in assay [1], in [2] and in assay [3] was “binds” in each case.
As to “endogenous U1-70K (from UniProt P08621 1-437)”, the binding entry in [4] was “no binding”; in assay [5], “binds”; in assay [6], “binds”; in assay [1], “binds”; in assay [7], “binds”; in assay [2] it was “binds”. Also, the binding entry in [8] and in [9] was “no binding” each time.

B1: endogenous LUC7L3 (protein, UniProt O95232 1-432)
chain: MISAAQLLDELMGRDRNLAPDEKRSNVRWDHESVCKYYLCGFCPAELFTNTRSDLGPCEKIHDENLRKQYEKSSRFMKVGYERDFLRYLQSLLAEVERRIRRGHARLALSQNQQSSGAAGPTGKNEEKIQVLTDKIDVLLQQIEELGSEGKVEEAQGMMKLVEQLKEERELLRSTTSTIESFAAQEKQMEVCEVCGAFLIVGDAQSRVDDHLMGKQHMGYAKIKATVEELKEKLRKRTEEPDRDERLKKEKQEREEREKEREREREERERKRRREEEEREKERARDRERRKRSRSRSRHSSRTSDRRCSRSRDHKRSRSRERRRSRSRDRRRSRSHDRSERKHRSRSRDRRRSKSRDRKSYKHRSKSRDREQDRKSKEKEKRGSDDKKSSVKSGSREKQSEDTNTESKESDTKNEVNGTSEDIKSEGDTQSN
Regarding B1, the binding entry in assay [10], in assay [11], in assay [12] and in assay [13] was “binds” in each case.

For the origin of these results see doi:10.1101/243014.
